Test results as given in the supplement of paper PMC12595434, “Development of retinoid nuclear receptor pathway antagonists through targeting aldehyde dehydrogenase 1A3” (iScience, 2025).
This is one part of the list. Single values of this set are uncertain.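 Tm was set to 64 °C where no melting was found, and many curves are irregular.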

Amino acid sequences for entries named in this document (tags omitted). A change or cut given only in a name is not applied to a line headed by its entry.
UniProt P04150: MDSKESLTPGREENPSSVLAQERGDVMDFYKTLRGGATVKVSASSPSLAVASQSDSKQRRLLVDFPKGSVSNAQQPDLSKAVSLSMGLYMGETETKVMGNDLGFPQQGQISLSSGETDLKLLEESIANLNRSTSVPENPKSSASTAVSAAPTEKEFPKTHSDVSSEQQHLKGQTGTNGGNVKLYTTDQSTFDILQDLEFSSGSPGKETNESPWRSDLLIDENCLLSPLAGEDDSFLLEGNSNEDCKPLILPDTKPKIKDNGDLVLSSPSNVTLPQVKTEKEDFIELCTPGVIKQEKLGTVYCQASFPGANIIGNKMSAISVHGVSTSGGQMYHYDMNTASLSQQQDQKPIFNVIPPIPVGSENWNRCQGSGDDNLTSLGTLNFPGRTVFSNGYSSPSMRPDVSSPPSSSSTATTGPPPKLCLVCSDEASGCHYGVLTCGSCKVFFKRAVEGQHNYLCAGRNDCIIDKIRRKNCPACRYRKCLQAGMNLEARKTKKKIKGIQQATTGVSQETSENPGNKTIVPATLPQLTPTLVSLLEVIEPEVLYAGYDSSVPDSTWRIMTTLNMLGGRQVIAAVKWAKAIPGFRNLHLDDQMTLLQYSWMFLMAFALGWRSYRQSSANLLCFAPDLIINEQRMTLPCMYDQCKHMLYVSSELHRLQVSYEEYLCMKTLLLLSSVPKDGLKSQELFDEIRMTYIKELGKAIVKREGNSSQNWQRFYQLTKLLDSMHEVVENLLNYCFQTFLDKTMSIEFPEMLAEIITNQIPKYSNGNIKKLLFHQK
UniProt P03905, whole entry, looked up: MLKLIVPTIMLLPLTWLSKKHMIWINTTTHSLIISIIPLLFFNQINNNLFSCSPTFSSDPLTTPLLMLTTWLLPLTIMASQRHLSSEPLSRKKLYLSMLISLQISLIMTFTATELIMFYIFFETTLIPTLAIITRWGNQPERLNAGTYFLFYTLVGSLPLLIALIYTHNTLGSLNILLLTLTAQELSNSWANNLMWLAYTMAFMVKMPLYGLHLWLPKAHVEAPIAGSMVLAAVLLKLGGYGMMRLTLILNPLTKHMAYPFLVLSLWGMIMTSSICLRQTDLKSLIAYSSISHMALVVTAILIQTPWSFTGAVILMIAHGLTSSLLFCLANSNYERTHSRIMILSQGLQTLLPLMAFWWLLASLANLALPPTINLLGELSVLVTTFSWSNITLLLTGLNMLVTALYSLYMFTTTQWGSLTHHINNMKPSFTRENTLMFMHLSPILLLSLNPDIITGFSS
UniProt P00403, whole entry: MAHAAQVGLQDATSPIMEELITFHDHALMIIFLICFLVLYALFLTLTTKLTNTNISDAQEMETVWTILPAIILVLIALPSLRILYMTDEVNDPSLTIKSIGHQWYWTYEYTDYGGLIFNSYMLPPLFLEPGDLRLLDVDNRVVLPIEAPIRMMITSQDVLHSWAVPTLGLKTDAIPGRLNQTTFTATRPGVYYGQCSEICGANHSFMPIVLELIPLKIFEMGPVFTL
UniProt O94766: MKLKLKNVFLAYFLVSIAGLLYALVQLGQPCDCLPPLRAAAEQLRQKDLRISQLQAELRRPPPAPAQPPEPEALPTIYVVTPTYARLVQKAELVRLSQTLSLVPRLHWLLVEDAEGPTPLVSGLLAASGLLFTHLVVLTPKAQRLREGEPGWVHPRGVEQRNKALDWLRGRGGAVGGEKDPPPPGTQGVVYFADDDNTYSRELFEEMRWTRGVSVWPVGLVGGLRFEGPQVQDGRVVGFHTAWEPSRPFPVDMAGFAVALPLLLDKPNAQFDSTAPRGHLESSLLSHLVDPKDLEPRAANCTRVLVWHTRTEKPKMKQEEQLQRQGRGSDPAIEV
UniProt O94855: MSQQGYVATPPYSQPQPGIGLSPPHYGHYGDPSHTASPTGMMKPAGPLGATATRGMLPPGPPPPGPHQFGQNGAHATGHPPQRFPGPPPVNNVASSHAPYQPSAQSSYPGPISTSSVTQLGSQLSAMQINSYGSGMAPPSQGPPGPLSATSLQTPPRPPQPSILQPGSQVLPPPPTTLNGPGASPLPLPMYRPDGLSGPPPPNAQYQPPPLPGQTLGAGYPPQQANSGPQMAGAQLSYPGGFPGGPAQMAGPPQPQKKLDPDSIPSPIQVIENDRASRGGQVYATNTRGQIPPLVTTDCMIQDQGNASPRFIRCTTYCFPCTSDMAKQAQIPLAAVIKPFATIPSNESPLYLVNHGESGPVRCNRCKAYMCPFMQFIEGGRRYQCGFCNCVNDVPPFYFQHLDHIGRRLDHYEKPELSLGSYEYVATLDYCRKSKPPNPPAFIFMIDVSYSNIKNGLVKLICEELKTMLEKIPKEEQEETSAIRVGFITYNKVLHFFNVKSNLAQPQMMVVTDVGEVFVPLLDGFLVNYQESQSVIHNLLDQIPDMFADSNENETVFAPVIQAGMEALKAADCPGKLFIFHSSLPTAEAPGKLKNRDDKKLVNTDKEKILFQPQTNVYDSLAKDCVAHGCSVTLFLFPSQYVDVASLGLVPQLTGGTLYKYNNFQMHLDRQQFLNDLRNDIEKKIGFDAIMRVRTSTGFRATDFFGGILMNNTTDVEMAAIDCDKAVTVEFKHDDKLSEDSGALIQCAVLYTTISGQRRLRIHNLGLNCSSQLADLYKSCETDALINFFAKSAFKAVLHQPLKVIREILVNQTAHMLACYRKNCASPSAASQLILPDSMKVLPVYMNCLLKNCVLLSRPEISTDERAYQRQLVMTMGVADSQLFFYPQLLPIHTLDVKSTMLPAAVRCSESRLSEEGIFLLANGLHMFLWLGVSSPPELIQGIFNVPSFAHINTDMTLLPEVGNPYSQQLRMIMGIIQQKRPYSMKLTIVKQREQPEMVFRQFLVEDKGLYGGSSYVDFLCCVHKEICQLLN
UniProt O94903: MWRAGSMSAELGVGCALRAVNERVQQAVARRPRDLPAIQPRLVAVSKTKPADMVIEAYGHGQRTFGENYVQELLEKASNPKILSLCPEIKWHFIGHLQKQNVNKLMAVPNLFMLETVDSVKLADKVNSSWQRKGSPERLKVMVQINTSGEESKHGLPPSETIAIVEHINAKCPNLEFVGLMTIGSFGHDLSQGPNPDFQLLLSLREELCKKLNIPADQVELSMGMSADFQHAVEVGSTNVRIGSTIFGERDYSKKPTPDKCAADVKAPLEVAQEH
UniProt O94923: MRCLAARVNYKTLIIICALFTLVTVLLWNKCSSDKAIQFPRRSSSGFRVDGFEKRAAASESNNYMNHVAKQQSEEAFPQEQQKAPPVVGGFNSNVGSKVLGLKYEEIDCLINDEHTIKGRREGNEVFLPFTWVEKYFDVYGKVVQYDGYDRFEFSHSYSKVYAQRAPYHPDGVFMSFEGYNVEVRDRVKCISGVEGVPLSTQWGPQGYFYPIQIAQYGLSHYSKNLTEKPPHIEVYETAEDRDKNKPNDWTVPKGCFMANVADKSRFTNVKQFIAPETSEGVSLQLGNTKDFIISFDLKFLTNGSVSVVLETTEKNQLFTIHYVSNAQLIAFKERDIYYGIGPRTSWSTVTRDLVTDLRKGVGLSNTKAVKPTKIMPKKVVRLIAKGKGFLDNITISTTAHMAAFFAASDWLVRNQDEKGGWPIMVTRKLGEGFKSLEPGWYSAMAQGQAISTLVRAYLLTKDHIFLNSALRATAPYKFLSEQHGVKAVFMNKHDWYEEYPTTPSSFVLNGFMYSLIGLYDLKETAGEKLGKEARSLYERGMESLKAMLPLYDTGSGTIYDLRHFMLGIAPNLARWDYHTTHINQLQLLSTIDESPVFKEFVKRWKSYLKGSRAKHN
UniProt O76054, whole entry: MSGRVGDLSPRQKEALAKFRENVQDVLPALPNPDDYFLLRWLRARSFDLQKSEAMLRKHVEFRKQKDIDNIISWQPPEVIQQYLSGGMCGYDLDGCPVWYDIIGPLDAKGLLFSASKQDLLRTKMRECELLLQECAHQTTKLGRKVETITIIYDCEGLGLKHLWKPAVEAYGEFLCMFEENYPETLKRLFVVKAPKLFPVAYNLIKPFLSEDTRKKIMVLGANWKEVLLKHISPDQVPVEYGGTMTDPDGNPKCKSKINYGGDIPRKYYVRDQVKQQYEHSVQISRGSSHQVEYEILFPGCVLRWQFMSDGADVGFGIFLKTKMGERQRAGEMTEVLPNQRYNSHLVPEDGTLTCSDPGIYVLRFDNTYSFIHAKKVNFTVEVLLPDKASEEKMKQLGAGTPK
UniProt P06730, whole entry: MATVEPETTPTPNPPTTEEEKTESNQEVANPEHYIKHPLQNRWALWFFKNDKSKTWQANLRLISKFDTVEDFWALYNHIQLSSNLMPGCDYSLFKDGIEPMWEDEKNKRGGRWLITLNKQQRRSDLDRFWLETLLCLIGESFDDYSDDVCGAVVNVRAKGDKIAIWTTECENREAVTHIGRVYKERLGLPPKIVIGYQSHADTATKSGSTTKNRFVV
UniProt P00558: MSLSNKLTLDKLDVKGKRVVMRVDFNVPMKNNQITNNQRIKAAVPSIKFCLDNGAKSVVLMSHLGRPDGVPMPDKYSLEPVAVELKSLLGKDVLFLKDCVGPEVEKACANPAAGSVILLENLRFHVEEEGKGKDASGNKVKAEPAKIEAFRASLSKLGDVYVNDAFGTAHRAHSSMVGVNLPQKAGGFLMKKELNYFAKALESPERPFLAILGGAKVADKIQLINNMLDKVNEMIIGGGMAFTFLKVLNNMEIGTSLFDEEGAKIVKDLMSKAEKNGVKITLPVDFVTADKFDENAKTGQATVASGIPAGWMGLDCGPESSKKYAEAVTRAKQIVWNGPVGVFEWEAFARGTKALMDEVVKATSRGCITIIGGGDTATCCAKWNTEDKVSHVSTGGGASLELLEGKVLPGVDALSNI
UniProt P04350, whole entry: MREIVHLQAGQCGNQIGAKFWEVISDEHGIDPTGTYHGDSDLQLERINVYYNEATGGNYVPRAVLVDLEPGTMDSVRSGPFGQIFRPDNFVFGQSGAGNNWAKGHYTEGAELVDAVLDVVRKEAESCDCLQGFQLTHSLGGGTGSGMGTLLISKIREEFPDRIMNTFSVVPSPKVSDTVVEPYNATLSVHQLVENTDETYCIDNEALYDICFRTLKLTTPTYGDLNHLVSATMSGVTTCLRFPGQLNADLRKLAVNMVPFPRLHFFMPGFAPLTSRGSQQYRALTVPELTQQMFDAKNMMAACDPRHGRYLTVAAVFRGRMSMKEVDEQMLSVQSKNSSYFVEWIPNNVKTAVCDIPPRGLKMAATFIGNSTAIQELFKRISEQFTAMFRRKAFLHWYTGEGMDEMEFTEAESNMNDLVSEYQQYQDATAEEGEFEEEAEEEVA
UniProt O95747, whole entry, looked up: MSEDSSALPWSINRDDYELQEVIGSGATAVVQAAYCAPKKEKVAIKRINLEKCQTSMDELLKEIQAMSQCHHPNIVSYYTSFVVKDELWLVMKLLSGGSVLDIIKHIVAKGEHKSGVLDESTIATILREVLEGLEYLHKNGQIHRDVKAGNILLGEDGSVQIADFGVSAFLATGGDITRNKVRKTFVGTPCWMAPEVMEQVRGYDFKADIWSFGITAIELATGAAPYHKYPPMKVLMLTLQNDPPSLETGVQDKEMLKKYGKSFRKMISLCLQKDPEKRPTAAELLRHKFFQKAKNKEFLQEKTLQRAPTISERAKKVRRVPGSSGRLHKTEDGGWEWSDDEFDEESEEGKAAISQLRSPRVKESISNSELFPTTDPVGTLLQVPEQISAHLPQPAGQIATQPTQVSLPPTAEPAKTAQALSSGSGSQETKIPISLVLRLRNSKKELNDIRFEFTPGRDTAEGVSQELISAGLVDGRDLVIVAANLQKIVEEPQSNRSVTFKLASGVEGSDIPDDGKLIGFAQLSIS
UniProt P00846: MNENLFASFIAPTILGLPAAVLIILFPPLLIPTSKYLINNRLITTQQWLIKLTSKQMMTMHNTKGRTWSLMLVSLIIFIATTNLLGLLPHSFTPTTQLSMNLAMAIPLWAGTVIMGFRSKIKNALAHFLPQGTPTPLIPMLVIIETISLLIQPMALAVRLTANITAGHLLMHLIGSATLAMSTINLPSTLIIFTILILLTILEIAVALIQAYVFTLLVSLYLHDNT
UniProt O95219: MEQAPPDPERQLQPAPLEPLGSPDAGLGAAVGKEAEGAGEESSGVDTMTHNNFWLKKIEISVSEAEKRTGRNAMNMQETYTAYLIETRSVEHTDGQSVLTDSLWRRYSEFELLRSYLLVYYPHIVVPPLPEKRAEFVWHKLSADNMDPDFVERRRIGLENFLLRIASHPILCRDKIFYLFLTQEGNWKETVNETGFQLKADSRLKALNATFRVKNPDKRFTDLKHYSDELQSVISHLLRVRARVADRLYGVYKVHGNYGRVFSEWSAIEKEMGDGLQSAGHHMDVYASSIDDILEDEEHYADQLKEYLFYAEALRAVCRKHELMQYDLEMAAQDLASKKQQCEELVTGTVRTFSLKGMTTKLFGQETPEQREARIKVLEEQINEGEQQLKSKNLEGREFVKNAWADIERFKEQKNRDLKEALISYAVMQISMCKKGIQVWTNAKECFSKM

Compound: CCc1cnccc1C(=O)Nc1cc2c(cc1F)NC(=O)CC2
Assay: melting temperature shift (DMSO Tm minus MBE1-treated Tm) in cellular thermal proteome profiling; higher = less thermal stabilization by MBE1 (negative = stabilized by MBE1)
Settings: A375

Row | Target | melting temperature shift (MBE1 concentration: 100 nM) [°C] | melting temperature shift (MBE1 concentration: 1 uM) [°C]
1 | NR3C1 (UniProt P04150) | -0.724 | -0.16
2 | UniProt P03905 | -0.488 | 0.104
3 | UniProt P00403 | -1.55 | 1.83
4 | B3GAT3 (UniProt O94766) | -0.362 | 0.483
5 | UniProt P02751 | -0.731 | 1.4
6 | SEC24D (UniProt O94855) | 0.812 | 0.977
7 | UniProt P04626 | 0.296 | -0.782
8 | PROSC (UniProt O94903) | -0.047 | -0.586
9 | UniProt O94804 | -0.347 | 0.179
10 | GLCE (UniProt O94923) | -0.651 | -0.0201
11 | UniProt O76054 | 0.0488 | 0.434
12 | EIF4E (UniProt P06730) | -0.825 | 0.604
13 | LUC7L3 (UniProt O95232) | -1.4 | -0.694
14 | LDHA (UniProt P00338) | -1.83 | -1.81
15 | PGK1 (UniProt P00558) | -0.409 | 0.463
16 | UniProt P04350 | 0.531 | 1.94
17 | UniProt O95382 | -1.04 | -0.826
18 | OXSR1 (UniProt O95747) | -0.0706 | -0.179
19 | SEC24A (UniProt O95486) | 0.299 | -0.0122
20 | UniProt P00846 | -0.226 | -0.74
21 | ENDOD1 (UniProt O94919) | -2.2 | -0.726
22 | SNX4 (UniProt O95219) | 0.568 | -0.275

Reformatted with tabs: part of the list above
Row	Target	melting temperature shift (MBE1 concentration: 100 nM) [°C]	melting temperature shift (MBE1 concentration: 1 uM) [°C]
1	NR3C1 (UniProt P04150)	-0.724	-0.16
5	UniProt P02751	-0.731	1.4
8	PROSC (UniProt O94903)	-0.047	-0.586
9	UniProt O94804	-0.347	0.179
13	LUC7L3 (UniProt O95232)	-1.4	-0.694
19	SEC24A (UniProt O95486)	0.299	-0.0122
